PubChem BioAssay AID504804 | Drosophila RNAi Screening Center – 2011
The screen tested about 19,000 reagents; this is a random part of those that have a named target and a result. Of all reagents, 47 (0.25%) are marked active. 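Signals are raw, not normalised; exact z-scores behind calls not deposited; actives needed confirmation, so some wells reaching 2 SD are inactive.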

- Purpose: 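Knock-downs shielding fly cells from apoptosis caused by DNA damage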 (primary screen)
- Cell system: Drosophila Kc cells
- Reagents: long dsRNA against Drosophila genes, 0.5 µg dsRNA per well
- Timing: 96 h (48 h knock-down, then 48 h drug)
- Treatment: doxorubicin 5 µg/ml for 48 h, added 48 h after dsRNA
- Detection: 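Luminescent ATP counts per replicate, not normalised, reflecting viable cells after 48 h dsRNA knock-down followed by 48 h of 5 µg/ml doxorubicin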
- Scale: raw ATP luminescence: higher = more viable cells, protection from doxorubicin
- Call rule: 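z-score of 2 or more over plate mean in both duplicates, retained only when retests and separate dsRNAs confirm the protection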

{"gene": "PyK", "amplicon": "DRSC16806", "raw ATP luminescence, replicate 1": 67910, "raw ATP luminescence, replicate 2": 42130, "Outcome": "inactive"}
{"gene": "side-II", "amplicon": "DRSC01427", "raw ATP luminescence, replicate 1": 3.54e5, "raw ATP luminescence, replicate 2": 2.98e5, "Outcome": "inactive"}
{"gene": "side-II", "amplicon": "DRSC01429", "raw ATP luminescence, replicate 1": 3.63e5, "raw ATP luminescence, replicate 2": 2.99e5, "Outcome": "inactive"}
{"gene": "side-II", "amplicon": "DRSC01913", "raw ATP luminescence, replicate 1": 56367, "raw ATP luminescence, replicate 2": 66087, "Outcome": "inactive"}
{"gene": "side-II", "amplicon": "DRSC01932", "raw ATP luminescence, replicate 1": 57617, "raw ATP luminescence, replicate 2": 90863, "Outcome": "inactive"}
{"gene": "side-II", "amplicon": "DRSC02480", "raw ATP luminescence, replicate 1": 44920, "raw ATP luminescence, replicate 2": 81670, "Outcome": "inactive"}
{"gene": "Abcd3", "amplicon": "DRSC19488", "raw ATP luminescence, replicate 1": 2.10e5, "raw ATP luminescence, replicate 2": 1.99e5, "Outcome": "inactive"}
{"gene": "Vps37B", "amplicon": "DRSC12165", "raw ATP luminescence, replicate 1": 34357, "raw ATP luminescence, replicate 2": 31530, "Outcome": "inactive"}
{"gene": "CG1239", "amplicon": "DRSC12204", "raw ATP luminescence, replicate 1": 75383, "raw ATP luminescence, replicate 2": 37907, "Outcome": "inactive"}
{"gene": "Fdx1", "amplicon": "DRSC11167", "raw ATP luminescence, replicate 1": 88553, "raw ATP luminescence, replicate 2": 89643, "Outcome": "inactive"}
{"gene": "CG33257", "amplicon": "DRSC09917", "raw ATP luminescence, replicate 1": 58937, "raw ATP luminescence, replicate 2": 52757, "Outcome": "inactive"}
{"gene": "CG30159", "amplicon": "DRSC04981", "raw ATP luminescence, replicate 1": 62760, "raw ATP luminescence, replicate 2": 66130, "Outcome": "inactive"}

2 entries already listed, sorted by “raw ATP luminescence, replicate 2”, low to high:
{"gene": "side-II", "amplicon": "DRSC02480", "raw ATP luminescence, replicate 1": 44920, "raw ATP luminescence, replicate 2": 81670, "Outcome": "inactive"}
{"gene": "Abcd3", "amplicon": "DRSC19488", "raw ATP luminescence, replicate 1": 2.10e5, "raw ATP luminescence, replicate 2": 1.99e5, "Outcome": "inactive"}
